Test results from article PMC5556109, “A combinatorial approach for the discovery of cytochrome P450 2D6 inhibitors from nature” (Scientific Reports, 2017).

By UniProt entry, the sequences of proteins in these tests, tags left out.
UniProt P10635, whole entry: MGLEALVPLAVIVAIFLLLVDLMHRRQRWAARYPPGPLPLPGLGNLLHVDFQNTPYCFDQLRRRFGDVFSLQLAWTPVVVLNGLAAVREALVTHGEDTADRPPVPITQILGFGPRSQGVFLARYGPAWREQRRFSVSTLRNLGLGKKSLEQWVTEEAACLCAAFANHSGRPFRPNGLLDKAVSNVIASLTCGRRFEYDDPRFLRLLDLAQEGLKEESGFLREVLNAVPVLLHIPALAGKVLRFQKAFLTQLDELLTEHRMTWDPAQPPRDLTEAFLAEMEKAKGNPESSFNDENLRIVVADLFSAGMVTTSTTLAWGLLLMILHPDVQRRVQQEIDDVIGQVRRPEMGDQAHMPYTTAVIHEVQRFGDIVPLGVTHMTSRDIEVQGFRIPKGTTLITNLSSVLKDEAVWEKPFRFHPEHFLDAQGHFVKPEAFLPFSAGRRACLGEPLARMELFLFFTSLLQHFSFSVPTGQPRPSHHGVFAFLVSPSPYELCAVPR

Biological target: CYP2D6 (Homo sapiens, UniProt P10635)
Details: recombinant enzyme

CN[C@H]1CCc2cc(OC)c(OC)c(OC)c2-c2ccc(OC)c(=O)cc21 [Compound 12, Colcemid]
classification of CYP2D6 inhibition (actives / weak actives / inactives): inactives (key: actives: those compounds were classified as active, which exhibited CYP2D6 IC50 values up to 10 µM; inactives showed less than 50 % total luminescence at a concentration of 100 µM)
